# In patent US20130217592A1, “ARRAYS AND METHODS COMPRISING M. SMITHII GENE PRODUCTS” (THE WASHINGTON UNIVERSITY, priority 2007, published 2013):
# Values joined by “and” are separate entries in the source; they are usually repeats but may differ in a detail not shown here. Identical values can stand only once.
# Columns and labels:
# M. smithii strain PS = experiment: Statin susceptibility, M. smithii strain PS (Table 16, FIG. 10), average optical density (600 nm); format: cell-based, Methanobrevibacter smithii; details: statin 100 μM, successive unlabelled time points
# Experimental: (§1) A system for culturing M. smithii in 96-well plate format was designed and constructed in the following manner (See FIG. 15). Three stainless steel paint canisters (Binks, 83S-210, 2 gallon size) were modified for incubation of plates at 37° C. in an oxygen-free gas mix of 20% CO2/80% H2 at a pressure of 30 psi, where all of these growth parameters can be monitored and recorded. […]
# (§2) The system is pressurized with oxygen-free gas that has flowed through a custom-built oxygen scrub. […] Pressure in each tank is measured and recorded with a digital manometer (LEO record, Omni Instruments).
# (§3) The system is housed inside an anaerobic chamber (COY laboratories) to allow inspection and manipulation of cultures and plates without exposing M. smithii to oxygen. Each tank can house 30 standard volume 96-well plates, which can be analyzed inside the COY anaerobic chamber with a microplate reader (BioRad) that monitors growth by measuring optical density.
# (§4) 1.5 μl of the stock solutions were added to wells in 96-well plates and transferred to the COY anaerobic chamber where they were kept for at least 24 hours to become anaerobic. […] Growth was measured by determining optical density at 600 nm using the BioRad microplate reader (model 680). […]
# M. smithii strain F1 = experiment: Statin susceptibility, M. smithii strain F1 (Table 17, FIG. 11), average optical density (600 nm); format: cell-based, Methanobrevibacter smithii; details: statin 100 μM, successive unlabelled time points
# Experimental: as §1, §2, §3, §4
smiles,measurement,setting,value
CC(C)c1c(C(=O)Nc2ccccc2)c(-c2ccccc2)c(-c2ccc(F)cc2)n1CC[C@@H](O)C[C@@H](O)CC(=O)O [atorvastatin],"average optical density (600 nm), standard deviation",M. smithii strain PS,0.031 (0.006) and 0.03 (0.007) and 0.033 (0.007) and 0.033 (0.002) and 0.024 (0.007) and 0.032 (0.003) and 0.032 (0.007)
same,"average optical density (600 nm), standard deviation",M. smithii strain F1,0.018 (0.002) and 0.018 (0.003) and 0.016 (0.002) and 0.015 (0.001) and 0.01 (0) and 0.018 (0.001)
